Experimental findings from publication PMC7046344 are described below.

The chains behind the UniProt entries cited, without tags or fusion partners. Where a name states a change or a piece, a line headed by the entry shows the natural chain unless it says otherwise.
UniProt Q9V9Y9: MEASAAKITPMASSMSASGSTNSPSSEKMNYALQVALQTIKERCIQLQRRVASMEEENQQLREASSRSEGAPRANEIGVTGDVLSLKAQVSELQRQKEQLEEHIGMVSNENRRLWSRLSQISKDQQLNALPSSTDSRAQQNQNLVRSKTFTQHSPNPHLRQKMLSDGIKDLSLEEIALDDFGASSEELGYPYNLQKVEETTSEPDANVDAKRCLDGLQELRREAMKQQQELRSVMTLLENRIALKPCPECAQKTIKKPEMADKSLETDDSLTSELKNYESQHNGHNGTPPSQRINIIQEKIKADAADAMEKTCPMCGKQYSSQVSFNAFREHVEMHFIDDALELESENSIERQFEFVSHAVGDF

The target of the assay is T1, FLAG-Rab11-DN (Drosophila) (UniProt O18335).
T1 sequence: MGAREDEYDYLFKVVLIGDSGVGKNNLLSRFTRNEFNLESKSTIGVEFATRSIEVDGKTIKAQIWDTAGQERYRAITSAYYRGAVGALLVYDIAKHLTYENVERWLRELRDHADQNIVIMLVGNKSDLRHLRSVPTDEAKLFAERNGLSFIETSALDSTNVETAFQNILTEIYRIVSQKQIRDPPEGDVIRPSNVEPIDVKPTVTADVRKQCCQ
As to the kind of experiment: co-IP; lysates of co-transfected S2 cells (20 mM Tris pH 7.0, 150 mM NaCl, 2 mM EDTA, 1% TritonX-100, 1 mM DTT) incubated with anti-FLAG M2 agarose beads on ice, washed with lysis buffer; immunoblot.

Results are given in words; binding and its absence hold for the method and conditions named. In cells and extracts the contact can be indirect. Binding calls can cover weak binding; strength is not graded here. Where a sequence is shown, tags or fusion partners need not be part of it.

As to SpnF-ΔSCD-myc (from UniProt Q9V9Y9), the binding entry is reported as “no binding”.

On to SpnF-ΔCC3-myc (from UniProt Q9V9Y9), for which the binding result is recorded as “binds”.
